We go through 3 sequences from patent US20240200044.

At least one result comes from cells or an extract, where the contact may be indirect.

The target of this data set is CBX8-directed TALE-omega K59E (synthetic construct) (UniProt Q56830). Nature of the data set: one hybrid. The note with it: little effect versus canonical; protein in cells; protein details: N-terminal FLAG-NLS, C-terminal RNAP omega; variant of CBX8 5'T site.
Take “ATCAGGAGGGCTTCGGC (double strand) [CBX8 5'A site]”: the binding result is “binds”.

As to “CTCAGGAGGGCTTCGGC (double strand) [CBX8 5'C site]”, the binding result is on record as “binds”.

As to “GTCAGGAGGGCTTCGGC (double strand) [CBX8 5'G site]”, the binding result is on record as “binds”.
